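Curve-fitted potency for raising eGFP-delta133p53alpha fluorescence in NCI-H358 cells after a 24-hour treatment.
The dilution series runs from about 7.7e-06 to 290 µM in 23 concentration columns.
Potency, read at half-maximal effect from the fitted activation curve; lower values mean a more potent compound.
Calls follow the dose-curve shape: a well-fitted activation curve with a large enough effect is active, and small, poorly fitted or top-dose-only effects are inconclusive.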

By UniProt entry, the sequences of proteins in these tests, tags left out.
UniProt P04637, whole entry, target on record: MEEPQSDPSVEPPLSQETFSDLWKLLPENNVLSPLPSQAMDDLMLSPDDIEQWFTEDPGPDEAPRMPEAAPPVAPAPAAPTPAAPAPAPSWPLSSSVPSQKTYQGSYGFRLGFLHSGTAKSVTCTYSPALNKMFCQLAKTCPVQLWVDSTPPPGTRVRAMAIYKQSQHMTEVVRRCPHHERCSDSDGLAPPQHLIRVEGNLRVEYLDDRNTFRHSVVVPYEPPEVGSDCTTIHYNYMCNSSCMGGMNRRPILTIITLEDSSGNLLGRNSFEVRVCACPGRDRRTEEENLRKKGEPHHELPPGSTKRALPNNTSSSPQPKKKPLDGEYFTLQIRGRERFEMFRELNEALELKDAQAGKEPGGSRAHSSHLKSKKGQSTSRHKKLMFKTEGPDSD

Values are in µM.
All entries here are filed as inconclusive.
These entries are mostly ones the record files as inconclusive; other results of the assay are not listed here.
A potency from a partial, single-point or poor curve is only a rough figure.
Some entries filed as inconclusive have a full curve.

C/C=C/C1=CC2=C(CO1)C(=O)C(C)(OC(=O)c1c(C)cc(O)cc1OC)C(O)C2 (stereo unspecified) read potency 20.85 µM (activator, single point). With C/C1=C\CC(C)(C)/C=C/C/C(C(=O)O)=C/CC1 the assay gave potency 0.9528 µM (activator, full curve, poor fit). CC(C)(C)OC(=O)Nc1ccc(-c2cc(C(=O)NCCCCCCC(=O)NO)no2)cc1 gave potency 30.61 µM (activator, partial curve, poor fit). Nc1ncn([C@@H]2O[C@H](CO)[C@@H](O)[C@H]2O)c(=O)n1 read potency 21.89 µM (activator, single point). Cc1cnc(Nc2ccc(F)cc2Cl)nc1-c1c[nH]c(C(=O)NC(CO)c2cccc(Cl)c2)c1 (stereo unspecified) gave potency 21.33 µM (activator, single point).

Result for C[C@H]1CCC/C=C/C2C[C@H](O)C[C@H]2[C@H](O)/C=C/C(=O)O1 (stereo partly specified) was potency 3.013 µM (activator, full curve, poor fit). With CN(C)c1ccc(C(=O)NCCCCCCC(=O)NO)cc1 the assay gave potency 8.627 µM (activator, single point). Result for CC(C)(O)c1cc2nc(-c3cnc(N)nc3)nc(N3CCOCC3)c2s1 was potency 7.689 µM (activator, single point). CCOCC(O)COc1ccc(NC(=O)CC[S+](C)C)cc1 (stereo unspecified) gave potency 0.1231 µM (activator, full curve, poor fit). CC(C)c1ccc(Cn2ccc3c4c(N)nc(NC5CC5)nc4ccc32)cc1 read potency 3.061 µM (activator, full curve).

CC(C)N(CCC(=O)c1ccc2ccccc2c1)Cc1ccccc1 gave potency 26.85 µM (activator, single point). With Oc1ccc([C@@H]2Oc3ccc(O)cc3[C@@H]3CCC[C@@H]32)cc1 the assay gave potency 4.256 µM (activator, single point). CCCCCCCCCCCC1=C(O)C(=O)C=C(O)C1=O gave potency 7.689 µM (activator, partial curve, poor fit). For O=[N+]([O-])/C=C/c1ccc2c(c1)OCO2 the result was potency 33.81 µM (activator, single point). Result for C=C1CC[C@@H]2[C@](C)(CO)[C@H](O[C@@H]3O[C@H](CO)[C@@H](O)[C@H](O)[C@H]3O)CC[C@@]2(C)[C@@H]1C/C=C1/C(=O)OC[C@H]1O was potency 0.0828 µM (activator, full curve, poor fit).

O=C1NC(=O)c2cc(Nc3ccccc3)c(Nc3ccccc3)cc21 gave potency 2.686 µM (activator, partial curve, poor fit). Clc1ccc2ncc(-c3cccc(NC4CNC4)n3)n2c1 gave potency 43.24 µM (activator, single point). C=C1CN(Cc2ccc(C(=O)Nc3ccccc3N)cc2)C(=O)c2ccccc21 gave potency 21.66 µM (activator, partial curve, poor fit). COc1ccccc1S(=O)(=O)Nc1ccc2c(c1)CN(C)C(=O)N2 read potency 12 µM (activator, partial curve, poor fit). For C[C@H]1[C@H](O)O[C@@H]2O[C@@]3(C)CC[C@H]4[C@H](C)CC[C@@H]1[C@@]24OO3 the result was potency 0.5358 µM (activator, full curve, poor fit).

O=C(CCCCCCNC(=O)c1cnc(N(c2ccccc2)c2ccccc2)nc1)NO gave potency 34.33 µM (activator, single point). With C/C=C(/C)C(=O)O[C@H]1C(C)=C2[C@H]([C@@H]1OC(=O)CCCCCCC)[C@@](C)(OC(C)=O)C[C@H](OC(=O)CCC)[C@@]1(O)[C@H]2OC(=O)[C@@]1(C)O the assay gave potency 0.2133 µM (activator, full curve). For Cc1[nH]c2ccccc2c1C1=C(NCCc2ccc(F)cc2)C(=O)N(C)C1=O the result was potency 21.33 µM (activator, partial curve, poor fit). Cc1ccc(=O)n(-c2ccccc2)c1 gave potency 38.93 µM (activator, single point). For CC(C)CC(=O)O[C@@H]1OC=C(CO[C@@H]2O[C@H](CO[C@@H]3O[C@H](CO)[C@@H](O)[C@H](O)[C@H]3O)[C@@H](O)[C@H](O)[C@H]2O)[C@H]2C[C@H](O)[C@@H](CO)[C@@H]12 the result was potency 1.41 µM (activator, partial curve, poor fit).

Result for Cn1cnc([N+](=O)[O-])c1Sc1ncnc2nc[nH]c12 was potency 24.32 µM (activator, partial curve, poor fit). COc1ccc2c(c1)CCC1C2CC[C@@]2(C)C1CC[C@@H]2NCCCCCCN1C(=O)C=CC1=O (stereo partly specified) read potency 2.133 µM (activator, partial curve, poor fit). For Cc1cc(OCCCc2c(C(=O)O)n(Cc3cccnc3)c3c(-c4c(COc5ccc(N6CCN([S+](C)(=O)[O-])CC6)cc5)nn(C)c4C)cccc23)cc(C)c1Cl the result was potency 19.31 µM (activator, partial curve, poor fit). CO[C@H]1c2cc(C(C)C)c(O)c(O)c2[C@@]23CCCC(C)(C)C2[C@@H]1OC3=O (stereo partly specified) read potency 18.58 µM (activator, single point). With CC(NC(=O)Cc1cc(F)cc(F)c1)C(=O)NC1C(=O)N(C)c2ccccc2-c2ccccc21 (stereo unspecified) the assay gave potency 23.93 µM (activator, single point).

With Cn1sc(=O)n(Cc2ccccc2)c1=O the assay gave potency 37.93 µM (activator, single point). With CC(=O)Nc1sc2c(c1-c1nc3ccccc3s1)CNC2 the assay gave potency 19.31 µM (activator, partial curve, poor fit).

Repeated from the top, 2 entries:

C/C=C/C1=CC2=C(CO1)C(=O)C(C)(OC(=O)c1c(C)cc(O)cc1OC)C(O)C2 (stereo unspecified) read potency 20.85 µM (activator, single point).
C/C1=C\CC(C)(C)/C=C/C/C(C(=O)O)=C/CC1 read potency 0.9528 µM (activator, full curve, poor fit).

The results are deposited in PubChem (AID2060322; NCATS, 2025).